Laboratory results taken from patent publication US20210113586A1, “NEW USE AND METHODS OF MODULATING IMMUNE RESPONSES” (DIAMYD MEDICAL AB, priority 2018, published 2021).

Assay: Plasma GABA concentration by ELISA
Set-up: species or system human
Conditions: mean±SEM

## NCCCC(=O)O [GABA, gamma-aminobutyric acid]
ND individuals
  plasma GABA concentration (endogenous): 501 ± 32 nM
T1D subjects
  plasma GABA concentration (endogenous): 649 ± 42 nM
